The supplement of paper PMC12067093, “Discovery and optimisation of a covalent ligand for TRIM25 and its application to targeted protein ubiquitination” (Chemical Science, 2025)
The list shows a part of the results.

By UniProt entry, the sequences of proteins in these tests, tags left out. Where a name states a change or a piece, a line headed by the entry shows the natural chain unless it says otherwise.
UniProt Q9Y6C9: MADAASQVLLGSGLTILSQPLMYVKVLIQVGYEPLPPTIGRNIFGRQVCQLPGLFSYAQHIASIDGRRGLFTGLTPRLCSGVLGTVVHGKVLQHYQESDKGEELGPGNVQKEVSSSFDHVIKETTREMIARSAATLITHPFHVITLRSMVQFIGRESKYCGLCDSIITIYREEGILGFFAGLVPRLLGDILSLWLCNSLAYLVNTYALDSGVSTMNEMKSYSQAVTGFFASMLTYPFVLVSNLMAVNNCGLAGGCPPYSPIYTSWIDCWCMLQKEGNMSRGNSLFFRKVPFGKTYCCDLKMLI
UniProt P52701: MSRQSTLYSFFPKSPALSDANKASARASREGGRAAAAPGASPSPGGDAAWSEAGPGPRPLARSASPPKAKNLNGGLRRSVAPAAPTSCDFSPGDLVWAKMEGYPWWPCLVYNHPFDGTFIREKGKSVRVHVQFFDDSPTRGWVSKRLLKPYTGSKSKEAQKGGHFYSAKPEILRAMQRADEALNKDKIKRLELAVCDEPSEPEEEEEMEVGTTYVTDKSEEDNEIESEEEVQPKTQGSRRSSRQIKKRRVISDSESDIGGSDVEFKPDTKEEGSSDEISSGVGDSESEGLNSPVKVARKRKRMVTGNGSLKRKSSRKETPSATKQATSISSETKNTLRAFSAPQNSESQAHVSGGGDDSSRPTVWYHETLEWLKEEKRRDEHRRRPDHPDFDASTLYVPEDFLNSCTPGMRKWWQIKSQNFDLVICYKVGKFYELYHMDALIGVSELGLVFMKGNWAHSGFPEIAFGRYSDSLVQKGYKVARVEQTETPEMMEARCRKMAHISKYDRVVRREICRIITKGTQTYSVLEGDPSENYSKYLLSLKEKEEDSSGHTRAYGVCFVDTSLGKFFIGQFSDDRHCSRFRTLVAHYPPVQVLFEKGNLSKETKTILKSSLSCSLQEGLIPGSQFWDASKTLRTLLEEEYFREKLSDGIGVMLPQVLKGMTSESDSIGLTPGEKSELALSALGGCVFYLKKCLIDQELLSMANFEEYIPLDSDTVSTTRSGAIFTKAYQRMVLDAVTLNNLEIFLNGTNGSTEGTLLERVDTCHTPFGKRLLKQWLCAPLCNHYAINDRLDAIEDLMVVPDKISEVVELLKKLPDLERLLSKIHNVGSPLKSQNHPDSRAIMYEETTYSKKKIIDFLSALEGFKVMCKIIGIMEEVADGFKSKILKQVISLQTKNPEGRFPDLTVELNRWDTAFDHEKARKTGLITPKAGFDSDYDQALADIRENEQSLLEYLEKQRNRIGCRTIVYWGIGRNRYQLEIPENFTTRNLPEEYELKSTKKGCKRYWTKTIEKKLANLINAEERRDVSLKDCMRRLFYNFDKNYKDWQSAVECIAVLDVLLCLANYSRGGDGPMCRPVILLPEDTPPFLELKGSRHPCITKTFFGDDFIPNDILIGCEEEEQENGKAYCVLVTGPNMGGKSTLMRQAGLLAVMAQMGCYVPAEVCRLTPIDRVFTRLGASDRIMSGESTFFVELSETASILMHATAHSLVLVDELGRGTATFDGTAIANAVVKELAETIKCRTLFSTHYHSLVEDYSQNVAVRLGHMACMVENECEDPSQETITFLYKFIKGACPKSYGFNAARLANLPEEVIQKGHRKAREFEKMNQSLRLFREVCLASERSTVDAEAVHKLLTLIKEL
UniProt P35579, whole entry, looked up: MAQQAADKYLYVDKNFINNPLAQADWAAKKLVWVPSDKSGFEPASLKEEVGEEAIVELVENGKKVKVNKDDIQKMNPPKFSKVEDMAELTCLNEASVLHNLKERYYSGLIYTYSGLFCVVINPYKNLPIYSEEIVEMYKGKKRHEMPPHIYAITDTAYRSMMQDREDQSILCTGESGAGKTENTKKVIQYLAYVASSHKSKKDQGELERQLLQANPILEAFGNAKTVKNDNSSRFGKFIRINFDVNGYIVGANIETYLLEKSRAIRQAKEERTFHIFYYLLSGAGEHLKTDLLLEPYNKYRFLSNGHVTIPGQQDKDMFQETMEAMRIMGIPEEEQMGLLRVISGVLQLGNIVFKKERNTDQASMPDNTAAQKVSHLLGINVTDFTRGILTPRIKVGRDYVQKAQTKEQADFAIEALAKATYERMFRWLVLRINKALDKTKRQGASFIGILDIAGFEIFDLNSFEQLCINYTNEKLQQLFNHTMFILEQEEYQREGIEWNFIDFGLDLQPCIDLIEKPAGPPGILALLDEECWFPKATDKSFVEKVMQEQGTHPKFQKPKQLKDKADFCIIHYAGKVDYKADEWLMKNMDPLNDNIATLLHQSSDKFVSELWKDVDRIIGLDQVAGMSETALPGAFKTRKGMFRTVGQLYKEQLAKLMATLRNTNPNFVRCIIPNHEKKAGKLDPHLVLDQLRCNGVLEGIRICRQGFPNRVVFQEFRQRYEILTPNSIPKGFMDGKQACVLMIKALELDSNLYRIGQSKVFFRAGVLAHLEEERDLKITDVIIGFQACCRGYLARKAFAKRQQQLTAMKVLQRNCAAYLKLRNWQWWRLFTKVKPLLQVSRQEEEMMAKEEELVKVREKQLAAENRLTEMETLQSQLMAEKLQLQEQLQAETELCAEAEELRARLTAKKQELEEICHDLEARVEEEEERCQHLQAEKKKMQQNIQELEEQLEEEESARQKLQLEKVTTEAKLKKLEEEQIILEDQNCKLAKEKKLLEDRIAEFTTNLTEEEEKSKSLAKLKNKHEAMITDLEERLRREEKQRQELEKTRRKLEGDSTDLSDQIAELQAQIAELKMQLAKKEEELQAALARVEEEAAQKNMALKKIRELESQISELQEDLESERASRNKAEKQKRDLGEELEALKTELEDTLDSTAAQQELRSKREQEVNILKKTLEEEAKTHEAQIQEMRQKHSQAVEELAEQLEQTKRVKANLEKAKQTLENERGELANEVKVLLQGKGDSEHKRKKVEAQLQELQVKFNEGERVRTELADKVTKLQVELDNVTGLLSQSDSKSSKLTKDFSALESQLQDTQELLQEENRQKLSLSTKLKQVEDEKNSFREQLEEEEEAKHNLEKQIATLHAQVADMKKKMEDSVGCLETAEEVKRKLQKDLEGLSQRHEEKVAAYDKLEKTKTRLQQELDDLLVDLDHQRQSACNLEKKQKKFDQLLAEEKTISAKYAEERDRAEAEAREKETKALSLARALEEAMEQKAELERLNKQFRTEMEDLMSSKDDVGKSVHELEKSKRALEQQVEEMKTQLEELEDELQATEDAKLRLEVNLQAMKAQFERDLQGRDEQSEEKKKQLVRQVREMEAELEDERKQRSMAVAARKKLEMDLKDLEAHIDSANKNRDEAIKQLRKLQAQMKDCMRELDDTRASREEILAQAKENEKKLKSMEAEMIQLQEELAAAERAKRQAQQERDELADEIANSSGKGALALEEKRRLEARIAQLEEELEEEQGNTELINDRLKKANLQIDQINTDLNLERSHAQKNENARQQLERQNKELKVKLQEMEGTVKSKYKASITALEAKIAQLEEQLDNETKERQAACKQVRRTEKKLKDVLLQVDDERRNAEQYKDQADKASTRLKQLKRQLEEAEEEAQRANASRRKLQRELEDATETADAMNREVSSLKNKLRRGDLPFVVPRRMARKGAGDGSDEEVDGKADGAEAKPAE
UniProt Q9BTC8: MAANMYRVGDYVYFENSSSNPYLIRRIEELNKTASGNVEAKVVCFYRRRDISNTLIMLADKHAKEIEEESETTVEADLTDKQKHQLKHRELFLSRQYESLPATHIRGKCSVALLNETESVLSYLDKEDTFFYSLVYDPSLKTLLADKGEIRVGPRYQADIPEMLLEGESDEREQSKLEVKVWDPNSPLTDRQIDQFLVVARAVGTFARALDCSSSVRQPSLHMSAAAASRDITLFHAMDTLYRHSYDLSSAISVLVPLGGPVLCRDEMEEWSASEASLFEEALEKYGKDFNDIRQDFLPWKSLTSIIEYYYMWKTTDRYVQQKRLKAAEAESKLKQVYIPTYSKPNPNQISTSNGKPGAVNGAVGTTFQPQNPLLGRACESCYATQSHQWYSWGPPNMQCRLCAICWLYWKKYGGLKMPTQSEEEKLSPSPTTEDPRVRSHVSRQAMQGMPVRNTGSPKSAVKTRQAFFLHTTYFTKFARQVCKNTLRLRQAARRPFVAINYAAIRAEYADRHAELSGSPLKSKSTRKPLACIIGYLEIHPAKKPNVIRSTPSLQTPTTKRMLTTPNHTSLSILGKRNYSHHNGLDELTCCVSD
UniProt P11586, whole entry, looked up: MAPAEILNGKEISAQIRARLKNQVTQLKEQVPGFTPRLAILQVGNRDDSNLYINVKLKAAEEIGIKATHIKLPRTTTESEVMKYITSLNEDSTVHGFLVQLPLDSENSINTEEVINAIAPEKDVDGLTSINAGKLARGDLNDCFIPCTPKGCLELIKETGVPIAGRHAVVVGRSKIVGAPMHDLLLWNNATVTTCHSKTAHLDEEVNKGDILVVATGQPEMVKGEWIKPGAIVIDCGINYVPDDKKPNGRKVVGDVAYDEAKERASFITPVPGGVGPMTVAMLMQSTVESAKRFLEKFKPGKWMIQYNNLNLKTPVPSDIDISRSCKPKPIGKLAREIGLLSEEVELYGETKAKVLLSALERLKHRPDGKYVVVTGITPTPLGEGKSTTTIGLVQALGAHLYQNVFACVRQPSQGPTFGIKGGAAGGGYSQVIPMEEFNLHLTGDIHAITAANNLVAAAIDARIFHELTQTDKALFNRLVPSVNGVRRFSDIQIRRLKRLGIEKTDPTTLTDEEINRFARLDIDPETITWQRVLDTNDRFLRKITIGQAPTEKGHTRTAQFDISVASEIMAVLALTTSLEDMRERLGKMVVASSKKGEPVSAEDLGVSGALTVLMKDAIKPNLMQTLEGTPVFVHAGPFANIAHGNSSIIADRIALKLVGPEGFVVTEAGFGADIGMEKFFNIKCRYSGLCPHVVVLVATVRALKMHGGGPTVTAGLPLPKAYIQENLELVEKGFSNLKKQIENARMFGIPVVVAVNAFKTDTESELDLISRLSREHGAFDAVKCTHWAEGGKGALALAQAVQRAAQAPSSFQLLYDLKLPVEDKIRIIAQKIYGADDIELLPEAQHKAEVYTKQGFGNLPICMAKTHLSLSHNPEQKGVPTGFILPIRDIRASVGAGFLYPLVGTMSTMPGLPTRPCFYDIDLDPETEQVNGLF
UniProt O94776: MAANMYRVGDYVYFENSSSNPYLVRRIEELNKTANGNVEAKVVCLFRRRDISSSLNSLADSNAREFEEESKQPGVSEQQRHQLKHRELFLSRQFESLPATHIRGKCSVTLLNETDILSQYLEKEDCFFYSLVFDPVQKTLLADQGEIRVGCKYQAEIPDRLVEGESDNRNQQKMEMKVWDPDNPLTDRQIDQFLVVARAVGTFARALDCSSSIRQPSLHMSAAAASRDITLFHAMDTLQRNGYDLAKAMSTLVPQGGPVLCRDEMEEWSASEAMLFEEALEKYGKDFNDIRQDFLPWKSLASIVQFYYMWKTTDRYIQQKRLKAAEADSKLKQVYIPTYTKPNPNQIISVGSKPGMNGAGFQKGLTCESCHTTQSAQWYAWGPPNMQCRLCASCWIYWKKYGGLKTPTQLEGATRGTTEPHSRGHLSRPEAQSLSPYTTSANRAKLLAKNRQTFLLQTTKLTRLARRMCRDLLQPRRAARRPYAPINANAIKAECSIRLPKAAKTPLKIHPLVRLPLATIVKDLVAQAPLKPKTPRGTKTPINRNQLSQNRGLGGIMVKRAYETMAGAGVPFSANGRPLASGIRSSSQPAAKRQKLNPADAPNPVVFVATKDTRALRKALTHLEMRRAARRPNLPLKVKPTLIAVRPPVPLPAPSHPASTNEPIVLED
UniProt Q9NXD2: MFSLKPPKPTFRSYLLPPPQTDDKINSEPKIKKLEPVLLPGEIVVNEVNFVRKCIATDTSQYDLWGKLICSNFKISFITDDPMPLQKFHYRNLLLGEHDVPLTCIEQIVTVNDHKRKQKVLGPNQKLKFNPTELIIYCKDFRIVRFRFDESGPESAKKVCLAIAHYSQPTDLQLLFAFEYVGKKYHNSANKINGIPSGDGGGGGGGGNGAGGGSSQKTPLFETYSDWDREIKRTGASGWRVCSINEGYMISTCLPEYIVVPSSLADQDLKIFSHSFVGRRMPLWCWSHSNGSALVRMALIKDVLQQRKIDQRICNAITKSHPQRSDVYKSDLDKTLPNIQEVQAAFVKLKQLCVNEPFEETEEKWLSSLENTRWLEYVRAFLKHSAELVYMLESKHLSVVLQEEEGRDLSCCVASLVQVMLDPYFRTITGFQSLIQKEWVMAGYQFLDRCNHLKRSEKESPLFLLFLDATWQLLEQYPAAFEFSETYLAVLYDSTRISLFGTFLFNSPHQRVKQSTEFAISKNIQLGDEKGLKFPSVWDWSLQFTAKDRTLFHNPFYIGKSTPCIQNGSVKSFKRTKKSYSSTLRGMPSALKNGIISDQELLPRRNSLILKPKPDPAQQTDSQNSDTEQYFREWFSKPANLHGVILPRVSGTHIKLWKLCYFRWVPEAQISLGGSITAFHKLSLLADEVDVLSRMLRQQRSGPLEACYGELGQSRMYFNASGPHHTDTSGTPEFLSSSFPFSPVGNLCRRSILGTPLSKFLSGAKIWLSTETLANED

Compound: Cc1cc(ccc1-c1ccccc1)C(=O)N1CCCN(CC1)C(=O)CCl [compound 10]
Experiment: probe-labelled cysteine peptide fold change vs DMSO (competition) (log2 fold change); higher = less target engagement (more negative = stronger competition)
Details: THP-1, incubation time: 4 h
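Note: competitive profiling in live THP-1 cells: cysteine peptides tagged with an iodoacetamide desthiobiotin (IA-DTB) probe, intensity after compound treatment relative to DMSO-treated cells.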

Target	probe-labelled cysteine peptide fold change (10 µM)	probe-labelled cysteine peptide fold change (50 µM)
MTCH2_Q9Y6C9_79_LCSGVLGTVVHGK (UniProt Q9Y6C9)	0.063	-0.00387
MUT_P22033_471_IEECAAR (UniProt P22033)	-0.147	-0.181
MRTO4_Q9UKD2_176_GVVTLLSDYEVCK (UniProt Q9UKD2)	0.0175	0.0303
MSH6_P52701_783_QWLCAPLCNHYAINDR (UniProt P52701)	-0.128	-0.0134
MYH9_P35579_931_CQHLQAEK (UniProt P35579)	0.122	0.114
MRPS30_Q9NP92_204_CPVHFYWVR (UniProt Q9NP92)	0.202	0.164
MYH9_P35579_896_LQLQEQLQAETELCAEAEELR (UniProt P35579)	0.0679	0.0431
MTA3_Q9BTC8_109_CSVALLNETESVLSYLDK (UniProt Q9BTC8)	0.791	0.971
MRPS9_P82933_330_HDVTCTVSGGGR (UniProt P82933)	0.0103	0.149
MSH2_P43246_641_HACVEVQDEIAFIPNDVYFEK (UniProt P43246)	-0.0635	0.293
MYH9_P35579_740_QACVLMIK (UniProt P35579)	0.0307	0.103
MTHFD1_P11586_408_STTTIGLVQALGAHLYQNVFACVR (UniProt P11586)	-0.162	-0.00951
MTA2_O94776_126_EDCFFYSLVFDPVQK (UniProt O94776)	0.276	0.226
MYCBP2_O75592_4318_QVFKEEEEAIKVDLHEGCGR (UniProt O75592)	-0.166	-0.439
MSH3_P20585_166_CTDFDDISLLHAK (UniProt P20585)	-0.186	-0.171
MRPS7_Q9Y2R9_152_NCEPMIGLVPILK (UniProt Q9Y2R9)	0.154	-0.0438
MTMR10_Q9NXD2_70_LICSNFK (UniProt Q9NXD2)	-0.125	-0.103
MYCBP2_O75592_4652_QLEGTECPLHVVHPPTGEEFALGCGVCR (UniProt O75592)	0.104	-0.0919
MRPS30_Q9NP92_293_TADPCCYGHTQFHLLPDK (UniProt Q9NP92)	0.0312	-0.0142
MTMR10_Q9NXD2_104_NLLLGEHDVPLTCIEQIVTVNDHK (UniProt Q9NXD2)	-0.0175	0.0677

Target	probe-labelled cysteine peptide fold change (10 µM)	probe-labelled cysteine peptide fold change (50 µM)
MYL6_P60660_2_CDFTEDQTAEFK (UniProt P60660)	-0.113	-0.215
MSH6_P52701_406_RPDHPDFDASTLYVPEDFLNSCTPGMR (UniProt P52701)	-0.103	-0.024
MTHFD1_P11586_236_GEWIKPGAIVIDCGINYVPDDKKPNGR (UniProt P11586)	-0.116	-1.23
MTHFD1_P11586_147_GDLNDCFIPCTPK (UniProt P11586)	-0.0576	-0.266
MYH10_P35580_1011_IAECSSQLAEEEEK (UniProt P35580)	-0.11	-0.111
MTA1_Q13330_281_AISALVPQGGPVLCR (UniProt Q13330)	0.093	0.56
MRPS31_Q92665_356_HFMELVTCGLSK (UniProt Q92665)	0.0457	-0.112
MYCBP2_O75592_3241_DTICELCGESHPYPVTYHMR (UniProt O75592)	-0.0846	-0.18
MTERF4_Q7Z6M4_219_ILHSCPSVLR (UniProt Q7Z6M4)	0.247	0.351
MTHFS_P49914_160_CLQHQEVKPYTLALAFK (UniProt P49914)	-0.021	-0.179
MRPS35_P82673_130_DFCTEWPAALDSDEK (UniProt P82673)	-0.148	-0.238
MYBL2_P10244_196_DCKPPVYLLLELEDK (UniProt P10244)	0.134	0.229
MYCBP2_O75592_4672_QLEGTECPLHVVHPPTGEEFALGCGVCR (UniProt O75592)	0.221	-0.025
MYCBP2_O75592_1516_ILSEGVDHCMVK (UniProt O75592)	0.145	-0.337
MTHFD1L_Q6UB35_198_GDAHECFVSPVAK (UniProt Q6UB35)	-0.0405	-0.0537
MYH9_P35579_1437_QSACNLEK (UniProt P35579)	-0.0174	-0.27
MTREX_P42285_297_QFAEWICHLHK (UniProt P42285)	0.083	0.19
MTRF1_O75570_200_TTGGDICQQFTR (UniProt O75570)	-0.205	-0.0835
MTA2_O94776_209_ALDCSSSIR (UniProt O94776)	0.0887	-0.0822
